No constants are given. Whether binding was seen depends on the method and setting. Some entries that bind do so weakly or less than the wild type.
Tests used:
[1] = biological target: amyloid Aβ plaque in the brain of 5×FAD mice (UniProt P05067); assay: co-immunostaining of brain sections 3 hr after microinjection of rAIM, fluorescence microscopy
[2] = biological target: amyloid Aβ plaque in the brain of 5×FAD mice (UniProt P05067); assay: co-immunostaining of brain sections of TG(+) 5×FAD mice, fluorescence microscopy

Amino acid sequences for entries named in this document (tags omitted). Residues count along the entry.
UniProt P05067, residues 672-713: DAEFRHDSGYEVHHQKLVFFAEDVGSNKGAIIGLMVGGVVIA

Binder | binding [1] | binding [2]
Recombinant mouse AIM (rAIM) (protein) ESPTKVQLVGGAHRCEGRVEVEHNGQWGTVCDDGWDRRDVAVVCRELNCGAVIQTPRGASYQPPASEQRVLIQGVDCNGTEDTLAQCELNYDVFDCSHEEDAGAQCENPDSDLLFIPEDVRLVDGPGHCQGRVEVLHQSQWSTVCKAGWNLQVSKVVCRQLGCGRALLTYGSCNKNTQGKGPIWMGKMSCSGQEANLRSCLLSRLENNCTHGEDTWMECEDPFELKLVGGDTPCSGRLEVLHKGSWGSVCDDNWGEKEDQVVCKQLGCGKSLHPSPKTRKIYGPGAGRIWLDDVNCSGKEQSLEFCRHRLWGYHDCTHKEDVEVICTDFDV | binds | –
mouse AIM expressed in brain nerve cells under human PDGF-B promoter (transgene, TG(+) 5×FAD mouse) (protein, UniProt Q9QWK4 22-352, looked up) ESPTKVQLVGGAHRCEGRVEVEHNGQWGTVCDDGWDRRDVAVVCRELNCGAVIQTPRGASYQPPASEQRVLIQGVDCNGTEDTLAQCELNYDVFDCSHEEDAGAQCENPDSDLLFIPEDVRLVDGPGHCQGRVEVLHQSQWSTVCKAGWNLQVSKVVCRQLGCGRALLTYGSCNKNTQGKGPIWMGKMSCSGQEANLRSCLLSRLENNCTHGEDTWMECEDPFELKLVGGDTPCSGRLEVLHKGSWGSVCDDNWGEKEDQVVCKQLGCGKSLHPSPKTRKIYGPGAGRIWLDDVNCSGKEQSLEFCRHRLWGYHDCTHKEDVEVICTDFDV | – | binds

Reference: patent US20220000975A1
